Reference: PubChem BioAssay AID504648 (National Center for Advancing Translational Sciences (NCATS), 2011)
Where “and” joins values, the source holds several entries; their conditions need not be identical. Equal values may be shown once. Hit rate of the full screen: of about 390,000 compounds, about 610 (0.16%) were called active. This list was built around the results that the source calls inconclusive (neither active nor inactive); the mix of calls is not that of the screen. The call rests on the fitted dose curve; in most records, active means well fitted inhibition curve with a large enough effect; inconclusive means small, poorly fitted or top-dose-only effect, or effect the other way, or another doubt; inactive means no such curve, though single readings can be large or run the other way. Potencies of inconclusive entries are doubtful fits and often do not repeat.
Potency means the concentration at half of the fitted maximal effect.

Test: Nrf2 qHTS screen for inhibitors: counterscreen for cytotoxicity
Settings: A549 ARE-Fluc cells, CellTiter-Fluor viability, 18-24 h; series mostly up to 46 µM
In short: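 Cytotoxicity counterscreen: CellTiter-Fluor fluorescence was measured in A549 ARE_Fluc cells after 18-24 h of compound exposure in a concentration series. The subsequent BugLite luminescent read reports ARE-luciferase activity.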
For `CCC1(c2ccc(Cl)cc2)NC(=S)N(c2ccc(C)cc2)N1` (stereo unspecified), the Potency was “inactive”. With `COc1cc(C2NC(=O)N(C)C3=C2C(=O)N(c2ccccc2)C3)ccc1O` (stereo unspecified) the Potency was “inactive”. In the case of `CCC(C)NC(=O)c1sc2nc(C)c(C(=O)Nc3ccc(C)cc3C)c(-c3ccc(Br)cc3)c2c1N` (stereo unspecified), the Potency is reported as inconclusive: 16.4 µM [activator, partial curve, poor fit]. For `CCOc1ccc(NC(=O)CN(C)C(=O)c2cn(-c3ccc(F)cc3)nc2-c2cccc(OC)c2)cc1OCC`, the Potency was inconclusive: 25.9 µM [falling, single point]. In the case of `Cc1ccnc(SCC(=O)NC2CC2)n1`, the Potency is reported as “inactive”. In the case of `CCOC(=O)c1cnc(-n2nc(C)cc2C)nc1NNc1cc(C)nc(-c2ccccc2)n1`, the Potency is reported as inconclusive: 7.31 µM [falling, partial curve]. For `Cc1cccc(C)c1OCc1nc2ccccc2c(=O)n1/N=C/c1c[nH]c2ccccc12`, the Potency was inconclusive: 23.1 µM [falling, single point]. With `CCN(CC(=O)Nc1c(F)cccc1F)C(=O)Cc1csc(-c2ccc(OC)c(OC)c2)n1` the Potency was “inactive”. For `NC(=S)NN=C1c2cc(Cl)ccc2-c2c1cc(Cl)cc2[N+](=O)[O-]`, the Potency was inconclusive: 23.1 µM [falling, partial curve, poor fit]. In the case of `CNc1snc(C)c1C(=O)OC(C)C(=O)c1ccc(F)cc1` (stereo unspecified), the Potency is reported as “inactive”. With `COc1cc(/C=N/N2CCN(C3c4ccccc4-c4ccccc43)CC2)ccc1O` the Potency was inconclusive: 23.1 µM [falling, partial curve, poor fit]. With `CC/C(=N\Nc1ccc([N+](=O)[O-])cc1[N+](=O)[O-])c1ccc(O)cc1` the Potency was inconclusive: 29.1 µM [falling, single point]. In the case of `O=C(CSc1nc(-c2ccc(F)cc2)[nH]c1-c1ccc(F)cc1)Nc1ccc2c(c1)OCO2`, the Potency is reported as inconclusive: 20.6 µM [falling, single point]. In the case of `CCC(c1nnnn1CCOC)N(Cc1cc2cc(C)c(C)cc2[nH]c1=O)CC1CCCO1` (stereo unspecified), the Potency is reported as “inactive”. In the case of `Cc1csc(SCC(=O)Nc2cc([N+](=O)[O-])ccc2F)n1`, the Potency is reported as inconclusive: 29.1 µM [falling, partial curve, poor fit]. In the case of `Cc1cc(Nc2cccc(C(F)(F)F)c2)nc2ccc(NC(=O)c3cccc(Cl)c3)cc12`, the Potency is reported as active: 18.4 µM. In the case of `CCOc1ccc(/C=C/C2=Cc3c(sc(NC(=O)CSc4n[nH]c(N)n4)c3C#N)C(C)(C)C2)cc1`, the Potency is reported as inconclusive: 9.2 µM [falling, single point]. With `CCOC(=O)c1sc(NC(=O)c2ccoc2C)c(C(N)=O)c1C` the Potency was “inactive”. With `COC(=O)c1c(NC(=O)CC2SC(N)=NC2=O)sc(C)c1C` (stereo unspecified) the Potency was “inactive”. For `Cc1ccc(Nc2c(-c3ccccn3)nc3cc(C)ccn23)cc1`, the Potency was inconclusive: 29.1 µM [falling, single point]. With `CCCCN(CCCNC(=O)c1cc(Nc2ccc(OC)c(OC)c2)nc2ccccc12)c1ccccc1` the Potency was “inactive”. For `O=c1c2ccccc2c(C=Nc2cccc(O)c2)c(O)n1-c1ccc2c(c1)OCO2`, the Potency was inconclusive: 18.4 µM [falling, single point]. With `COc1cc2c(cc1OC)CN(C(=O)CCOc1ccccc1C)CC2` the Potency was inconclusive: 16.4 µM [falling, partial curve, poor fit]. For `CCOC(=O)CC1C(=O)NCCN1C1CCCC1` (stereo unspecified), the Potency was “inactive”. In the case of `COc1ccc(NC(=S)NC(NC(=O)c2ccc(Cl)cc2Cl)C(Cl)(Cl)Cl)c([N+](=O)[O-])c1` (stereo unspecified), the Potency is reported as inconclusive: 29.1 µM [falling, single point]. With `CN(C)S(=O)(=O)c1ccc(NC(=O)Cn2ccsc2=N)cc1` the Potency was inconclusive: 20.6 µM [falling, partial curve]. For `COc1ccc(N2CCN(C(=O)Cn3c(=O)[nH]c4ccsc4c3=O)CC2)cc1`, the Potency was inconclusive: 1.64 µM [falling, partial curve, poor fit]. With `COc1cc(OC)c(N(C)S(=O)(=O)c2cccc(C(=O)OCC(=O)c3c[nH]c4ccccc34)c2)cc1Cl` the Potency was “inactive”. For `CC(CCc1ccccc1)NC(=O)Cn1c(=O)nc(-c2ccccc2)c2ccccc21` (stereo unspecified), the Potency was inconclusive: 20.6 µM [falling, single point]. For `O=C(Nc1ccc2nc(-c3ccc(Br)o3)[nH]c2c1)c1cccs1`, the Potency was inconclusive: 23.1 µM [falling, partial curve, poor fit]. For `CCN1CCN(c2ccc(S(=O)(=O)N3CCCCC3)cc2NC(=O)/C=C/c2ccc([N+](=O)[O-])cc2)CC1`, the Potency was inconclusive: 29.1 µM [falling, single point]. For `CCOC(=O)N1CCC(NC(=O)c2ccc3c(c2)sc2nc(-c4ccccc4)cn23)CC1`, the Potency was “inactive”. For `CCOc1cc(Cl)c(S(=O)(=O)n2ccnc2)cc1Cl`, the Potency was “inactive”. In the case of `CN(C)c1cc[n+](CC(=O)Nc2cccc([N+](=O)[O-])c2)cc1`, the Potency is reported as “inactive”. With `O=C(CCCN1C(=O)/C(=C/c2cccs2)SC1=S)Nc1ccccn1` the Potency was inconclusive: 29.1 µM [falling, single point]. For `Cc1sc2nc(SCC(=O)NCCO)n(-c3ccccc3)c(=O)c2c1C`, the Potency was inconclusive: 2.91 µM [falling, partial curve, poor fit]. In the case of `CCOC(=O)CNc1nc(C(C)(C)C)nc2c1nnn2Cc1ccccc1`, the Potency is reported as inconclusive: 1.16 µM [activator, full curve]. With `O=C(CCn1ccc2cc(S(=O)(=O)N3CCCC3)ccc21)NCc1ccccc1Br` the Potency was “inactive”. With `CC1CCCN(c2nc3ccccc3nc2C(C#N)S(=O)(=O)c2cccs2)C1` (stereo unspecified) the Potency was inconclusive: 16.4 µM [falling, single point]. For `O=C(O)Cn1c(O)c(C=Nc2ccccc2)sc1=S`, the Potency was inconclusive: 16.4 µM [falling, single point] and inconclusive: 20.6 µM [falling, single point]. In the case of `Cn1nc(C(F)(F)F)c2cc(C(=O)Nc3ccc(F)cc3)sc21`, the Potency is reported as inconclusive: 29.1 µM [falling, partial curve, poor fit]. For `Cc1cc(-c2cccnc2)c(C#N)c(SCc2cccc(F)c2)n1`, the Potency was inconclusive: 14.6 µM [activator, partial curve, poor fit]. For `C=CCOC(=O)C1=C(C)NC(=O)NC1c1ccc2c(c1)OCO2` (stereo unspecified), the Potency was inconclusive: 9.2 µM [activator, partial curve, poor fit]. With `CCCCC(CCCC)=N/N=C/c1c(O)n(CC)c2cc(C3=NNC(=O)CC3)ccc12` the Potency was “inactive”. In the case of `CCOc1ccc(N=Cc2c(O)n(-c3cccc(C)n3)c(=O)c3ccccc23)cc1`, the Potency is reported as active: 18.4 µM. With `Cc1ccc(S(=O)(=O)Nc2ccccc2C(=O)N2CCCCCC2)cc1` the Potency was “inactive”. In the case of `O=C(CCc1ccccc1)NC(NC(=S)Nc1cccc(Cl)c1)C(Cl)(Cl)Cl` (stereo unspecified), the Potency is reported as “inactive”. With `Clc1ccccc1/C=C/c1nc(-c2ccccn2)no1` the Potency was “inactive”. With `COc1cccc(NC(=O)Cn2cc(C(=O)c3ccc(C)cc3)c(=O)c3cc(OC)ccc32)c1` the Potency was inconclusive: 5.8 µM [falling, partial curve, poor fit]. With `CCOc1ccc(NS(=O)(=O)c2ccc3[nH]c4c(c3c2)CCCCC4)cc1` the Potency was “inactive”. In the case of `CC(C)c1ccc(COc2ccc(C(=O)N3CCOCC3)cc2)cc1`, the Potency is reported as inconclusive: 18.4 µM [activator, partial curve, poor fit]. For `Cc1nc2ccccc2n1CCc1nc2c3ccccc3nc(SCc3ccc(C#N)cc3)n2n1`, the Potency was “inactive”. In the case of `O=C(CN1C(=O)NC2(CCCCC2)C1=O)Oc1ccc2c(C(F)(F)F)cc(=O)oc2c1`, the Potency is reported as “inactive”. With `CCNC(=S)NNC(=O)c1cccn(Cc2ccc(Cl)cc2)c1=O` the Potency was inconclusive: 5.8 µM [activator, partial curve, poor fit]. For `CCCn1c(=N)c(C(=O)NCC2CCCO2)cc2c(=O)n3cccc(C)c3nc21` (stereo unspecified), the Potency was inconclusive: 23.1 µM [activator, single point]. For `CCCCc1ccc(C2C3=C(CC(C)(C)CC3=O)NC3=C2C(=O)c2ccccc23)cc1` (stereo unspecified), the Potency was inconclusive: 8.2 µM [falling, partial curve]. For `Cc1cc2c(n1-c1ccc(C(=O)NCc3ccccc3Cl)cc1)CCCC2`, the Potency was “inactive”. For `CCN(CC)CCCNC(=O)Cc1csc2nc(-c3ccc(Cl)cc3)cn12`, the Potency was inconclusive: 9.2 µM [activator, partial curve, poor fit]. In the case of `CCN1CCN(c2ccc(S(=O)(=O)N3CCCCC3)cc2NC(=O)c2ccc([N+](=O)[O-])s2)CC1`, the Potency is reported as inconclusive: 16.4 µM [falling, single point]. For `O=[N+]([O-])c1ccc(-c2nnc(-c3ccccc3)c(N3CCOCC3)n2)cc1`, the Potency was inconclusive: 29.1 µM [activator, partial curve, poor fit]. In the case of `Cc1ccc(NS(=O)(=O)c2cc3c(cc2-c2ccsc2)NC(=O)CO3)cc1C`, the Potency is reported as “inactive”. In the case of `CCc1ccc(NC(=O)CSc2nc3ccccc3c(=O)n2CCCC(=O)NCCCN2CCOCC2)cc1`, the Potency is reported as inconclusive: 29.1 µM [falling, single point]. In the case of `COc1cccc(S(=O)(=O)NCc2ccc(C(=O)Nc3ccc(Cl)c(Cl)c3)cc2)c1`, the Potency is reported as inconclusive: 5.17 µM [falling, partial curve, poor fit]. For `CCOc1ccccc1NC(=O)CSc1nc2nc(-c3cccs3)cc(C(F)(F)F)c2c(=O)[nH]1`, the Potency was inconclusive: 4.11 µM [falling, partial curve, poor fit]. In the case of `Cc1cccc(NC(=O)C2CCN(S(=O)(=O)c3ccc4c(c3)OCCCO4)CC2)n1`, the Potency is reported as “inactive”. For `O=C(CSc1cn(CCNC(=O)c2cccc(C(F)(F)F)c2)c2ccccc12)Nc1ccc2c(c1)OCCO2`, the Potency was inconclusive: 32.6 µM [falling, single point].
